Data taken from paper PMC12533114.
These are yes or no findings as the source states them, for the method shown. In cells and extracts the contact can be indirect. Some binding calls cover weakened binding; strength is not graded here.

Sequences of proteins named here, by UniProt entry; tags and fusion partners are left off.
UniProt P51593: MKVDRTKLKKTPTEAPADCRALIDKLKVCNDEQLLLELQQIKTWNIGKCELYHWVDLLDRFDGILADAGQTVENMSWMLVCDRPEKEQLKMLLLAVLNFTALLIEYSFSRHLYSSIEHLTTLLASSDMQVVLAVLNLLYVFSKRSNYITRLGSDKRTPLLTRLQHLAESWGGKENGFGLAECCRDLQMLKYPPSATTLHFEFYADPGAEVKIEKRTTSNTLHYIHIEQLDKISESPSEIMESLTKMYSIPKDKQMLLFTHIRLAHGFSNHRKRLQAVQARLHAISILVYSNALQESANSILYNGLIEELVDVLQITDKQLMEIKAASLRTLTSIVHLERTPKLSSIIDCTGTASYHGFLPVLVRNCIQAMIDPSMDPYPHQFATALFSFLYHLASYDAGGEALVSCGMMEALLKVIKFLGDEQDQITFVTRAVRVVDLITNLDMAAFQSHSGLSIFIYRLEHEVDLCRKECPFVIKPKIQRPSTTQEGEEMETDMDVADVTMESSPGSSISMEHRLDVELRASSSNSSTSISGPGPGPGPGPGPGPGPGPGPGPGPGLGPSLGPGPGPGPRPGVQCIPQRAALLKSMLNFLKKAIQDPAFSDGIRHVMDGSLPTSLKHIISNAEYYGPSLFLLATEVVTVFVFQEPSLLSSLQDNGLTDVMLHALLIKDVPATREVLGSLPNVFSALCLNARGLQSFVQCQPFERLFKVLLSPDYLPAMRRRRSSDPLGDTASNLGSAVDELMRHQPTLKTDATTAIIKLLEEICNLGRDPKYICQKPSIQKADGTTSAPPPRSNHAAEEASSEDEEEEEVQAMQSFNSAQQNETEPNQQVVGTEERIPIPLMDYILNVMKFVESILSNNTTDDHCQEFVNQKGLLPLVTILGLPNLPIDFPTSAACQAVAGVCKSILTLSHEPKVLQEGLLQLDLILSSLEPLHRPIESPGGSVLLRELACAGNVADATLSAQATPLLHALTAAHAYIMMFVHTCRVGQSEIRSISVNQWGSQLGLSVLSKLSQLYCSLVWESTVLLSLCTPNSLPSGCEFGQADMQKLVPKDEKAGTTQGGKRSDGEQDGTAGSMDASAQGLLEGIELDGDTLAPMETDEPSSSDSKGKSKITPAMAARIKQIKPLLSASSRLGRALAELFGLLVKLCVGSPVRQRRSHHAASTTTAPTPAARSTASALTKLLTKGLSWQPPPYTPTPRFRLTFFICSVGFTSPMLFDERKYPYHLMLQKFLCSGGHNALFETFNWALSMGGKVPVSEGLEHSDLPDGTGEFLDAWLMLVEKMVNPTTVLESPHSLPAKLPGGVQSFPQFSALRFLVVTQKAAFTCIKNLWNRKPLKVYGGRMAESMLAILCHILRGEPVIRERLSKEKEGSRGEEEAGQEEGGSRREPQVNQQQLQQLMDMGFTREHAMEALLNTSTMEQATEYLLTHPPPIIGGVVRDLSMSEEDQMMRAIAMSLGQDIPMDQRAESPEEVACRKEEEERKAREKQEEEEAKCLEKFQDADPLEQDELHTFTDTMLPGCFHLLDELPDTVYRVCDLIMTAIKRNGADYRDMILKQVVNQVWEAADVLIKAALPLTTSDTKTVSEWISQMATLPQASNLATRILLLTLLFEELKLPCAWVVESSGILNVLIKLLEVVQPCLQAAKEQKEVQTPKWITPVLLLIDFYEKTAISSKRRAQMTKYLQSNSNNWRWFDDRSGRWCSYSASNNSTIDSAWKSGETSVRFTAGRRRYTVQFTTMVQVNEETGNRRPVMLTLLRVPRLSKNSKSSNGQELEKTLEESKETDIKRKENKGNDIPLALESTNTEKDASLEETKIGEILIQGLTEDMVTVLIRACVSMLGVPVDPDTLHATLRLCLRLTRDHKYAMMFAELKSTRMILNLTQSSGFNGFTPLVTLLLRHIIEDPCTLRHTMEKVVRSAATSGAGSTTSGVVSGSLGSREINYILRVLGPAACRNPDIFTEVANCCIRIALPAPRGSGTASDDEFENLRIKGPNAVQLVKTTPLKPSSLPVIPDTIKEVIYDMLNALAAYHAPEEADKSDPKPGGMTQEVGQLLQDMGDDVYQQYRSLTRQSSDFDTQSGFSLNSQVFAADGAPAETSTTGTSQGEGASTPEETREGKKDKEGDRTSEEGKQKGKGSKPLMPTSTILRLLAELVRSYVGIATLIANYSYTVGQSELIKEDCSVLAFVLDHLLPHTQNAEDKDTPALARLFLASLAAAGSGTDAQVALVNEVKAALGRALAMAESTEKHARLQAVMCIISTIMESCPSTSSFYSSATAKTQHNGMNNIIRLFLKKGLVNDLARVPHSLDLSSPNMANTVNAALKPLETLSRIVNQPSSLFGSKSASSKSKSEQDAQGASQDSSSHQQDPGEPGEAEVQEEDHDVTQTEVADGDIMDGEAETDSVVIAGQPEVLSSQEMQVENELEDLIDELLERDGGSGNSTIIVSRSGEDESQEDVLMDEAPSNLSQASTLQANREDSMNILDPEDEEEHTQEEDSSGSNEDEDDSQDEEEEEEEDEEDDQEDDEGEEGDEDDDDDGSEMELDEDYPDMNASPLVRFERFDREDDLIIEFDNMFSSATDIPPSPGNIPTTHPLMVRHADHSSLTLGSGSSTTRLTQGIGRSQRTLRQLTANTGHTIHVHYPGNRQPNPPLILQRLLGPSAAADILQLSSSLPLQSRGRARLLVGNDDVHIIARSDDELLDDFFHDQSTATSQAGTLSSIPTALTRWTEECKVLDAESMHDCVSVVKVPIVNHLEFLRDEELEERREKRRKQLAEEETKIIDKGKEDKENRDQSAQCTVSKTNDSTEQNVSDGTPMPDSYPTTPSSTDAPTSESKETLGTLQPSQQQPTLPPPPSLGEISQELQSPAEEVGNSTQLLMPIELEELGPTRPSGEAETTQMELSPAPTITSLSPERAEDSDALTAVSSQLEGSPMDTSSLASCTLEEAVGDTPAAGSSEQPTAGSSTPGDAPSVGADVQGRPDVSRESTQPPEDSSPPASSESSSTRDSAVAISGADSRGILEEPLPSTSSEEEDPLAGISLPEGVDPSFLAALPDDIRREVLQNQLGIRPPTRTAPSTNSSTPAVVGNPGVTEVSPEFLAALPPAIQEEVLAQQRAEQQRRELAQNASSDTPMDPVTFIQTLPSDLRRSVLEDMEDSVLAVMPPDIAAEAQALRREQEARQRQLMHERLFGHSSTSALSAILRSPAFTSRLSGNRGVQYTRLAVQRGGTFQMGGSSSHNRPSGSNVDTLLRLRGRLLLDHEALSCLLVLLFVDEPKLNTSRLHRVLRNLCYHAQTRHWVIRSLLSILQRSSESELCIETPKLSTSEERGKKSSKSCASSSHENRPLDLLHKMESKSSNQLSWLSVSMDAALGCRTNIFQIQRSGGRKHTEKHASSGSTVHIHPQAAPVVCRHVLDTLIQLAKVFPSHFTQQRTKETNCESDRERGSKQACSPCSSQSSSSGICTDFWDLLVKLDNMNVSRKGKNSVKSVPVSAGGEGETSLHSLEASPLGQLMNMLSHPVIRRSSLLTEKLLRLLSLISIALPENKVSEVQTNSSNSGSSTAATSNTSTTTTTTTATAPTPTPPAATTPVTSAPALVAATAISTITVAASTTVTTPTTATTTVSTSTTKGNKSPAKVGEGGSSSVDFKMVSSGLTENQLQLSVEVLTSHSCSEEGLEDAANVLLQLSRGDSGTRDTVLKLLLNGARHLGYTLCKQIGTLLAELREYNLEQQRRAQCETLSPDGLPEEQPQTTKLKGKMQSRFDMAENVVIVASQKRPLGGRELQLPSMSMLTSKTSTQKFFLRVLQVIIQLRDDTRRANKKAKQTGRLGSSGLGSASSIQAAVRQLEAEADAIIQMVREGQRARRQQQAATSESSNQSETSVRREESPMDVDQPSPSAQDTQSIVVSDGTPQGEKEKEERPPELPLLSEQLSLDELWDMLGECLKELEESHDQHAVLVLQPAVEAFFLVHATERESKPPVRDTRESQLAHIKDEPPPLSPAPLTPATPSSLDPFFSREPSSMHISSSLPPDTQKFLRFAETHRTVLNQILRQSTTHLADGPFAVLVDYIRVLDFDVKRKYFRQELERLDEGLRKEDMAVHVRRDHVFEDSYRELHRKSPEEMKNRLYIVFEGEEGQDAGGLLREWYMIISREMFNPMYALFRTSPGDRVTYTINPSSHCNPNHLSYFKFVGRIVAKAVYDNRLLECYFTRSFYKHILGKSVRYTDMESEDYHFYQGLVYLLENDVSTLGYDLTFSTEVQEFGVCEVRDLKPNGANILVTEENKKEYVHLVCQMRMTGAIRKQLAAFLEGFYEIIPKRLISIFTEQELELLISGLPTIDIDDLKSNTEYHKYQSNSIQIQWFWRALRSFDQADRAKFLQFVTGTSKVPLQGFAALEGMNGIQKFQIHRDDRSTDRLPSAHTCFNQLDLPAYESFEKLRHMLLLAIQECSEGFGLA

T1: neurofilament light chain protein (rat (endogenous in SD rats)) (UniProt P19527)
T1 sequence: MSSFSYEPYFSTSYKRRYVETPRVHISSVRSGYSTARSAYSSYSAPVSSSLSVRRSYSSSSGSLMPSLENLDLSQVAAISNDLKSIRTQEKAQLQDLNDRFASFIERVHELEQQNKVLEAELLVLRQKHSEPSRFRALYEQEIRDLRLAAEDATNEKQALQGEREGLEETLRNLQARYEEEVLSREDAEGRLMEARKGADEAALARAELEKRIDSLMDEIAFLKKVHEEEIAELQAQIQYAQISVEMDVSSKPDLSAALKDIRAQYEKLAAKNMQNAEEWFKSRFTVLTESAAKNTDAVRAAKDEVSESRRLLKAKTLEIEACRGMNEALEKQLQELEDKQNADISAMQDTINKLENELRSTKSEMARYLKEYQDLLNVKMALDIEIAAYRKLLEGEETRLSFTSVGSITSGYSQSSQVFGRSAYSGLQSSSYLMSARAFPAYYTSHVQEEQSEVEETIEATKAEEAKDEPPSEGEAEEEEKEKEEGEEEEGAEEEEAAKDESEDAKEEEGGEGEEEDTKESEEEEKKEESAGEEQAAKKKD


Biological target: T1, neurofilament light chain protein (rat (endogenous in SD rats))
Experiment: co-IP; total protein of elderly control and high-dose atorvastatin rat groups; NFL antibody or IgG overnight at 4 °C, Protein A agarose beads; Western blot for Sirt2, Huwe1 and NFL

Row | binding | Molecule
1 | binds | HUWE1 (from UniProt P51593 1-4454) (enzyme)
2 | binds | SIRT2 (enzyme, UniProt Q5RJQ4 1-350) MDFLRNLFTQTLGLGSQKERLLDELTLEGVTRYMQSERCRRVICLVGAGISTSAGIPDFRSPSTGLYANLEKYHLPYPEAIFEISYFKKHPEPFFALAKELYPGQFKPTICHYFIRLLKEKGLLLRCYTQNIDTLERVAGLEPQDLVEAHGTFYTSHCVNTSCGKEYTMSWMKEKIFSEATPKCEKCQNVVKPDIVFFGENLPPRFFSCMQSDFSKVDLLIIMGTSLQVQPFASLISKAPLATPRLLINKEKTGQTDPFLGMMMGLGGGMDFDSKKAYRDVAWLGDCDQGCLALADLLGWKELEDLVRREHANIDAQSGSQASNPSATVSPRKSPPPAKEAARTKEKEEH
